Source: paper PMC5717261
Results are given in words; binding and its absence hold for the method and conditions named. Some entries that bind do so weakly or less than the wild type. Sequences can lack the tags named with a protein.

The chains behind the UniProt entries cited, without tags or fusion partners. Residues count along the entry.
UniProt P11226, residues 21-248: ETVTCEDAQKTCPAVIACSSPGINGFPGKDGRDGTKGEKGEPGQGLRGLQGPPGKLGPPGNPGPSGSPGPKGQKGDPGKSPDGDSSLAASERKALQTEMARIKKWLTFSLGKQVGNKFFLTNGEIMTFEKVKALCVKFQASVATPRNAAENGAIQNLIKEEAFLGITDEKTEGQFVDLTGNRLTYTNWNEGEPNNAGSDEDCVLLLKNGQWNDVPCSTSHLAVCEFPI

Target: Recombinant human mannose-binding lectin (MBL) (human) (UniProt P11226)
Assay: SPR; reverse configuration: C1q or MBL immobilised by amine coupling on CM5; soluble BMP-1 (50 nM) or mTLL-1 (150 nM) injected; 25 °C; both purified

Row | binding | Binder
1 | binds weakly | Recombinant human mammalian tolloid-like-1 (mTLL-1) with a C-terminal 6x-His tag (enzyme, UniProt O43897 148-1013) AATSRTERIWPGGVIPYVIGGNFTGSQRAMFKQAMRHWEKHTCVTFIERSDEESYIVFTYRPCGCCSYVGRRGNGPQAISIGKNCDKFGIVVHELGHVIGFWHEHTRPDRDNHVTIIRENIQPGQEYNFLKMEPGEVNSLGERYDFDSIMHYARNTFSRGMFLDTILPSRDDNGIRPAIGQRTRLSKGDIAQARKLYRCPACGETLQESNGNLSSPGFPNGYPSYTHCIWRVSVTPGEKIVLNFTTMDLYKSSLCWYDYIEVRDGYWRKSPLLGRFCGDKLPEVLTSTDSRMWIEFRSSSNWVGKGFAAVYEAICGGEIRKNEGQIQSPNYPDDYRPMKECVWKITVSESYHVGLTFQSFEIERHDNCAYDYLEVRDGTSENSPLIGRFCGYDKPEDIRSTSNTLWMKFVSDGTVNKAGFAANFFKEEDECAKPDRGGCEQRCLNTLGSYQCACEPGYELGPDRRSCEAACGGLLTKLNGTITTPGWPKEYPPNKNCVWQVVAPTQYRISVKFEFFELEGNEVCKYDYVEIWSGLSSESKLHGKFCGAEVPEVITSQFNNMRIEFKSDNTVSKKGFKAHFFSDKDECSKDNGGCQHECVNTMGSYMCQCRNGFVLHDNKHDCKEAECEQKIHSPSGLITSPNWPDKYPSRKECTWEISATPGHRIKLAFSEFEIEQHQECAYDHLEVFDGETEKSPILGRLCGNKIPDPLVATGNKMFVRFVSDASVQRKGFQATHSTECGGRLKAESKPRDLYSHAQFGDNNYPGQVDCEWLLVSERGSRLELSFQTFEVEEEADCGYDYVELFDGLDSTAVGLGRFCGSGPPEEIYSIGDSVLIHFHTDDTINKKGFHIRYKSIRYPDTTHTKK
2 | binds weakly | Recombinant human bone morphogenetic protein-1 (BMP-1) with a C-terminal FLAG tag (enzyme, UniProt P13497-2 121-730) AATSRPERVWPDGVIPFVIGGNFTGSQRAVFRQAMRHWEKHTCVTFLERTDEDSYIVFTYRPCGCCSYVGRRGGGPQAISIGKNCDKFGIVVHELGHVVGFWHEHTRPDRDRHVSIVRENIQPGQEYNFLKMEPQEVESLGETYDFDSIMHYARNTFSRGIFLDTIVPKYEVNGVKPPIGQRTRLSKGDIAQARKLYKCPACGETLQDSTGNFSSPEYPNGYSAHMHCVWRISVTPGEKIILNFTSLDLYRSRLCWYDYVEVRDGFWRKAPLRGRFCGSKLPEPIVSTDSRLWVEFRSSSNWVGKGFFAVYEAICGGDVKKDYGHIQSPNYPDDYRPSKVCIWRIQVSEGFHVGLTFQSFEIERHDSCAYDYLEVRDGHSESSTLIGRYCGYEKPDDIKSTSSRLWLKFVSDGSINKAGFAVNFFKEVDECSRPNRGGCEQRCLNTLGSYKCSCDPGYELAPDKRRCEAACGGFLTKLNGSITSPGWPKEYPPNKNCIWQLVAPTQYRISLQFDFFETEGNDVCKYDFVEVRSGLTADSKLHGKFCGSEKPEVITSQYNNMRVEFKSDNTVSKKGFKAHFFSEKRPALQPPRGRPHQLKFRVQKRNRTPQ
